# Percent effect of library compounds

By UniProt entry, the sequences of proteins in these tests, tags left out.
UniProt P9WNZ1, whole entry: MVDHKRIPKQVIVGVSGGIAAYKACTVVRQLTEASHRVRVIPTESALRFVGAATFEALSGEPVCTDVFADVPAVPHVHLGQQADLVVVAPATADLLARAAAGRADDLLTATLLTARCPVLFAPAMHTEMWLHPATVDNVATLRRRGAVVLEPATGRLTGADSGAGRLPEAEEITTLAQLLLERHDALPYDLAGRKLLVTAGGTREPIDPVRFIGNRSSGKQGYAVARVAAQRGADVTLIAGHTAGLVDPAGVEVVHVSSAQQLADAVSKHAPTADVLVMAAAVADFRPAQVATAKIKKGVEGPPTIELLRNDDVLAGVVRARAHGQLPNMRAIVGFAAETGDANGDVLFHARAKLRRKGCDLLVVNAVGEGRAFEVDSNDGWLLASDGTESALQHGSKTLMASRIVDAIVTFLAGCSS
UniProt P9WFT3, whole entry: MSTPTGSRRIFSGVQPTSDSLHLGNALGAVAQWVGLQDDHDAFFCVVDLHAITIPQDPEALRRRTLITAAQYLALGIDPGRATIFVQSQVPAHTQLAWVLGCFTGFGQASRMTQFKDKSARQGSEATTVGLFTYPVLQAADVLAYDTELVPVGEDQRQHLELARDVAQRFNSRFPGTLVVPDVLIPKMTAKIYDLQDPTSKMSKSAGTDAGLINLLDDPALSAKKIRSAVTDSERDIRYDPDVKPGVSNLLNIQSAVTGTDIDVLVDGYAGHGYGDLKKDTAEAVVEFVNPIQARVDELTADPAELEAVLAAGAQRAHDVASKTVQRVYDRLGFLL
UniProt I6X8D2, whole entry: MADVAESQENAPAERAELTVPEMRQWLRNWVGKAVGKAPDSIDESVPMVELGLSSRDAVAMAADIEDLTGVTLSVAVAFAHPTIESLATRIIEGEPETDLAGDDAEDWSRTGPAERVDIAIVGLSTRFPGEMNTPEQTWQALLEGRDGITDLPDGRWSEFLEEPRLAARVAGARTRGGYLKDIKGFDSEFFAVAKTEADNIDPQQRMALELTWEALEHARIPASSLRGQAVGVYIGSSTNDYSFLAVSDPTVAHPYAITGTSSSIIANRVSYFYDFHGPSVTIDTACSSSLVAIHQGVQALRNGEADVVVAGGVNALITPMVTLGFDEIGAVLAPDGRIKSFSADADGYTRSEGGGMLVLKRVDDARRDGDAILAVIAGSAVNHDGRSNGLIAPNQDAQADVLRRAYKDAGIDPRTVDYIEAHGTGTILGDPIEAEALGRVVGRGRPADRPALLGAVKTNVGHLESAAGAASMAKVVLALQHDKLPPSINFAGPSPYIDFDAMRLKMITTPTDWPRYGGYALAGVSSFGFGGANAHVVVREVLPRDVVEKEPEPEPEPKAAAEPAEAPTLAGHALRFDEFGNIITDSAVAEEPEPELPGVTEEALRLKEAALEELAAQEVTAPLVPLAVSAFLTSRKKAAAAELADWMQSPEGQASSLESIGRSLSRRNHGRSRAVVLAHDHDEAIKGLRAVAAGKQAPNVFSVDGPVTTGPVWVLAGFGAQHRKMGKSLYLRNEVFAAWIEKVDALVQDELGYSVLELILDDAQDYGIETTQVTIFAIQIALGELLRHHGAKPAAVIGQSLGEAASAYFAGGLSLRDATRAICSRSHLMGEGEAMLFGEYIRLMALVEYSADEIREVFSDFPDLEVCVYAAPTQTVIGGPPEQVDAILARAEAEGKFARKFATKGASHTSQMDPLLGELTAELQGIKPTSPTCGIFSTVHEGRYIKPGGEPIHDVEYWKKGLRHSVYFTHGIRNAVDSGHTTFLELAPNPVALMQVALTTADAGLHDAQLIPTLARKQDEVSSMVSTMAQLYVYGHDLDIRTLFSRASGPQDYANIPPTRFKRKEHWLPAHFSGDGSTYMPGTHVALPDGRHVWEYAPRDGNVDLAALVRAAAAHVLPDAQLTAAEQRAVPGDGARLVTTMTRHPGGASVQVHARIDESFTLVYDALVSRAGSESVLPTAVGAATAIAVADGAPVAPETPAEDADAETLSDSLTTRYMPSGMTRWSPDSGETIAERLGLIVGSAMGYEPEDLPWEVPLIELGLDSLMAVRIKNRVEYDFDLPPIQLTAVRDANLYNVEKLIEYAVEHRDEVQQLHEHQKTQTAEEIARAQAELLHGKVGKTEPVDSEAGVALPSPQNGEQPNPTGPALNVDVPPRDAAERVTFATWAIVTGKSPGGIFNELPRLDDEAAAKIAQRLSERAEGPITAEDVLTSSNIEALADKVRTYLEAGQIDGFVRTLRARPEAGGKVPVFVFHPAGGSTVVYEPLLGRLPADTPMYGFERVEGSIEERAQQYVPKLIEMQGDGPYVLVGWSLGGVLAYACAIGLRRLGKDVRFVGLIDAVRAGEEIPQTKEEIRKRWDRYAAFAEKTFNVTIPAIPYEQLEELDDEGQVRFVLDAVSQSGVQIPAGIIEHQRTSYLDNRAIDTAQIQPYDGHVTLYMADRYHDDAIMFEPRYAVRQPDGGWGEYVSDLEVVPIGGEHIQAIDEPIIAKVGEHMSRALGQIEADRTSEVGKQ

Data taken from ChEMBL document CHEMBL3988442, “University of Dundee, Small-Polar-MMV Screening Library” (2021).

CoaBC: 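Coenzyme A biosynthesis protein CoaBC, Mycobacterium tuberculosis (UniProt P9WNZ1). Enzyme assay of CoaBC with a phosphate dye (Biomol Green) read at 650 nm. Compounds at 30 µM. Higher reads as stronger inhibition, judged from the few compounds that gave an IC50. Most strong results did not repeat in a second test. About 67,000 compounds were tested under these conditions; 0.06% (about 40) showed 50% or more at least once.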
MtTrpRS: 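Tryptophan-tRNA ligase, Mycobacterium tuberculosis (UniProt P9WFT3). Enzyme assay of tryptophanyl-tRNA synthetase; the read-out is not stated. Concentration: 10 µM. Higher most likely means stronger inhibition; the record gives no direction and few retests gave an IC50. Of about 65,000 compounds tested this way, about 64 (0.098%) reached 50% or more in at least one test.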
Pks13 thioesterase: 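Enzyme assay of the thioesterase domain of polyketide synthase 13; the read-out is not stated. Target: Polyketide synthase Pks13, Mycobacterium tuberculosis (UniProt I6X8D2). Compounds at 30 µM. The record gives no direction; the compounds picked for IC50 retests had high values, so higher reads as stronger inhibition. About 67,000 compounds were tested under these conditions; 0.46% (about 300) showed 50% or more at least once.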

Results are given as percent effect. The controls that fix the scale are not given in the record; negative values are as filed. This is an unselected part of the compounds tested. A dash means the value is not listed here; it may have been measured.

SMILES | CoaBC | MtTrpRS | Pks13 thioesterase
C[C@@H]1CN(Cc2c[nH]c(CC3CCCC3)n2)CC[C@]1(C)O | - | 2.58% | -37.39%
CCN(CCOc1ccc(F)cc1)C(=O)c1ccncc1Cl | 12.7% | 3.835% | -13.93%
Fc1cnc(N2CCCC3(CN(Cc4ccccc4)CCO3)C2)nc1 (centres unmarked) | 5.123% | -2.928% | -10.63%
Cc1ccc(CNCCS(=O)(=O)N2CCOCC2)cc1C | -4.89% | -4.464% | 4.451%
CCCN(CCC)S(=O)(=O)NC(C)C(=O)N(C)C (centres unmarked) | 3.19% | -3.981% | -30.6%
O=C(c1ccc(-c2ccc(O)nc2)s1)N1CCCCC1 | 0.6928% | -3.109% | -3.211%
Cc1ccc(OCc2cccc(C(=O)N(C)C(C)CC#N)c2)cn1 (centres unmarked) | -67.91% | 1.63% | -
COC1CCN(C(=O)C2CCCC2)CC(=O)N(C)c2ccccc21 (centres unmarked) | -4.358% | - | -33.94%
CC(C)n1cc(CN2CCCN(C(=O)c3cccnc3O)CC2)cn1 | 2.2% | -0.7048% | -8.208%
CC(C)c1nnc2n1CCN(C(=O)c1ccnc(-n3ccnc3)c1)C2 | 2.727% | 28.29% | -10.22%
CC(=O)N(Cc1ncc(C)o1)C1CCN(CCc2ccncc2)C1 (centres unmarked) | -0.7634% | 0.4575% | -11.89%
O=C(CN1CCOC(Cn2cccn2)C1)NCc1ccco1 (centres unmarked) | 0.3736% | -5.322% | -14.7%
Cc1cccc(OCC(O)CN2CCC(Cn3cccn3)CC2)c1 (centres unmarked) | -12.06% | 14.25% | -33.8%
Cc1ccc(CN2CC(O)CN(C(=O)OCC(C)C)CC2=O)cc1 (centres unmarked) | -0.9685% | - | 3.988%
Cc1cccc(C)c1OCC(=O)Nc1cccn(C)c1=O | -3.74% | 0.3666% | -29.32%
CCOCc1cnc2n1CCN(C(=O)Cc1ccccn1)C2C (centres unmarked) | 0.6148% | -8.051% | -11.63%
COc1cc(CN(C)C(=O)Nc2cc(C)on2)ccc1SC | 7.66% | 3.565% | -6.346%
CC(C)n1cnnc1CNC(=O)CCCOc1ccccc1Cl | 1.34% | 1.432% | -10.39%
CCOCC1CN(c2ncc(F)cn2)Cc2cn(CC)nc21 (centres unmarked) | 8.333% | -6.135% | -30.21%
Cc1nc[nH]c1CN1C[C@@H]2CC[C@H](C1)N(C(=O)CCn1cncn1)C2 | 3.571% | 1.273% | -0.008718%
CN1CCN(S(=O)(=O)c2cccnc2)c2cnccc21 | 5.051% | 4.75% | -67.11%
Cn1cc(CN2C[C@@H]3CCC[C@@H](OCc4cccnc4)[C@@H]3C2)cn1 | 1.724% | -6.623% | 34.15%
CC(O)CN1CCC(CN(C)C(=O)NC2CC2)CC1 (centres unmarked) | 6.696% | -6.502% | -15.16%
Cc1ncccc1Oc1nccnc1C1CCN(C(C)C)CC1 | -3.056% | -0.2508% | -25.33%
CCOc1cc(C)nc(N2CCN(C(=O)c3cc(C)on3)CC2)n1 | 1.02% | -6.671% | -21.08%
Cc1nn(C)c(N2CCOCC2)c1CNCc1ccc2c(c1)OCO2 | 4.178% | -0.8777% | -13.12%
CCOc1cc(C(=O)N2CCCC(c3cc(C(N)=O)[nH]n3)C2)ccn1 (centres unmarked) | 8.514% | -0.4873% | -11.92%
O=C(Nc1cc(C2CCOCC2)[nH]n1)c1cscn1 | 2.851% | -8.226% | -5.202%
CCCC(C)N(C)Cc1nnc(-c2ccc(Br)s2)o1 (centres unmarked) | -0.1212% | -1.347% | 9.982%
CCOC(=O)C1CC2(CCCCC2)N2CCC(=O)N12 (centres unmarked) | 2.421% | - | -6.02%
N#CCCN(Cc1ccco1)C(=O)COC1CCCCC1 | - | 16.25% | -1.926%
CN(Cc1ccccc1O)C(=O)NC1CCCN(c2ncccn2)C1 (centres unmarked) | -2.66% | -1.415% | -1.88%
C[C@H]1CN(C(=O)c2cccnc2)C[C@@]12CCN(CCN1CCCC1)C2=O | -1.463% | - | 7.016%
CCOc1ncccc1C(=O)N1CCCCC1c1nccs1 (centres unmarked) | 2.966% | 2.426% | -3.247%
CC(=O)N1CCCC1C(=O)NCCOc1ccc(C(C)C)cc1 (centres unmarked) | 3.345% | -5.656% | -23.9%
CCC1CN(CC(=O)Nc2cc(C)nn2C)CCO1 (centres unmarked) | 15.77% | 4.963% | -21.87%
O=C(Cc1ccccn1)N1CCN(C(=O)CC2CCCC2)CC1 | 4.439% | -3.135% | -18.22%
CCN(CC(=O)NC)C(=O)c1csc(Cc2ccccc2)n1 | 1.84% | 0.2467% | -7.059%
CCCC(N)CNS(=O)(=O)Cc1cccc(C#N)c1 (centres unmarked) | 5.119% | 0.7819% | -9.93%
COc1cc(CNCC(O)c2ccccc2F)cc2c1OCO2 (centres unmarked) | -0.5102% | -5.49% | -23.34%
CCCc1nn(Cc2csc(C(C)C)n2)c(=O)o1 | 12.8% | -2.773% | -34.09%
CCCn1cc(CNCC(c2ccc(C)s2)N2CCOCC2)cn1 (centres unmarked) | 0.3968% | -6.48% | -2.864%
COc1ccccc1CN1C[C@@H]2COC[C@]2(COc2cccnc2)C1 | 6.786% | 4.113% | -12.06%
CC(C)CNC(=O)CNC(=O)c1nc(Cc2c(Cl)cccc2Cl)no1 | -3.066% | 2.156% | 36.05%
N#Cc1ccc(N2CCC(c3nc(C(F)(F)F)c[nH]3)CC2)nc1 | 5.366% | -2.886% | -39.79%
Cc1cnc(CN2CCCC2c2noc(C3CC3)n2)cn1 (centres unmarked) | 14.09% | -2.596% | -0.5225%

5 of the entries, repeated:

| SMILES | CoaBC | MtTrpRS | Pks13 thioesterase |
|---|---|---|---|
| `CN1CCN(S(=O)(=O)c2cccnc2)c2cnccc21` | 5.051% | 4.75% | -67.11% |
| `Cn1cc(CN2C[C@@H]3CCC[C@@H](OCc4cccnc4)[C@@H]3C2)cn1` | 1.724% | -6.623% | 34.15% |
| `CCCC(N)CNS(=O)(=O)Cc1cccc(C#N)c1` (centres unmarked) | 5.119% | 0.7819% | -9.93% |
| `CCOCC1CN(c2ncc(F)cn2)Cc2cn(CC)nc21` (centres unmarked) | 8.333% | -6.135% | -30.21% |
| `CCCN(CCC)S(=O)(=O)NC(C)C(=O)N(C)C` (centres unmarked) | 3.19% | -3.981% | -30.6% |